Measurements as given in the supplement of paper PMC10849652.
Some of the results follow.

Chains of the proteins cited; added tags and fusions are not shown. Lines headed by an entry give the natural chain unless they say otherwise; changes in a name come on top.
UniProt Q5FBB7: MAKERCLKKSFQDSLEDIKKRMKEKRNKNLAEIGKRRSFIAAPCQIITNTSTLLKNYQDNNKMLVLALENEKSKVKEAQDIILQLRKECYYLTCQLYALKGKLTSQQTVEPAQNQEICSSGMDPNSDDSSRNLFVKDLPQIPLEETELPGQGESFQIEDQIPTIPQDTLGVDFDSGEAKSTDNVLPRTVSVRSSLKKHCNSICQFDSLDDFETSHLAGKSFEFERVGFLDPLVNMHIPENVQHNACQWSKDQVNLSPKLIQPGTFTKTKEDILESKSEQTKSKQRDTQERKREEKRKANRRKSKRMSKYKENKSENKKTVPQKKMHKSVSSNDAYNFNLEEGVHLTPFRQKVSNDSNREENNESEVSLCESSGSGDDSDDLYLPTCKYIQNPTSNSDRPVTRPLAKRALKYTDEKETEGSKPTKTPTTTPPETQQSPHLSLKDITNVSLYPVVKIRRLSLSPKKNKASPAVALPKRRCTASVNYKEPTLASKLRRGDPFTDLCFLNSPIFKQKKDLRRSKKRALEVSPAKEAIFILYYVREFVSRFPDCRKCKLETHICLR
UniProt Q8N196: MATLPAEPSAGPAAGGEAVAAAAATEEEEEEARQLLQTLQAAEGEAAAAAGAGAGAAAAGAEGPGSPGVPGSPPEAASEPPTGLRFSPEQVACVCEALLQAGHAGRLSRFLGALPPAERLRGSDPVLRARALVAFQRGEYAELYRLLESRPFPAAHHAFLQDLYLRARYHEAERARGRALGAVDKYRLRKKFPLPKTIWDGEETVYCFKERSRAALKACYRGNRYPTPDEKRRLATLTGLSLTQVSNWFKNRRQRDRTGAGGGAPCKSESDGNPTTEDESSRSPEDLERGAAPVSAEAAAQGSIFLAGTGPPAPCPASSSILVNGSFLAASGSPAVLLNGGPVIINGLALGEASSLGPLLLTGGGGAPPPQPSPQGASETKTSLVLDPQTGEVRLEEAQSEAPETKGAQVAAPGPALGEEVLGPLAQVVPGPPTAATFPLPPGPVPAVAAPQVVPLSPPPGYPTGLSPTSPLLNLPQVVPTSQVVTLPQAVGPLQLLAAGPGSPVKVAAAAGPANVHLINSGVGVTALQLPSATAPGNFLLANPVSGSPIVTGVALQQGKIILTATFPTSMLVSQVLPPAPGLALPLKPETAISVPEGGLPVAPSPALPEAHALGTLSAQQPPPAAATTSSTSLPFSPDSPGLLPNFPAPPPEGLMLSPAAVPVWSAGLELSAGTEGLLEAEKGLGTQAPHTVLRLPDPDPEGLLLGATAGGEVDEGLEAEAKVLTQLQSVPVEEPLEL
UniProt Q9H299: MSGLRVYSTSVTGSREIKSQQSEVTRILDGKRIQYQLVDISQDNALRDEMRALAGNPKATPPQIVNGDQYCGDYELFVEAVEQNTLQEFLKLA
UniProt Q9BXP2: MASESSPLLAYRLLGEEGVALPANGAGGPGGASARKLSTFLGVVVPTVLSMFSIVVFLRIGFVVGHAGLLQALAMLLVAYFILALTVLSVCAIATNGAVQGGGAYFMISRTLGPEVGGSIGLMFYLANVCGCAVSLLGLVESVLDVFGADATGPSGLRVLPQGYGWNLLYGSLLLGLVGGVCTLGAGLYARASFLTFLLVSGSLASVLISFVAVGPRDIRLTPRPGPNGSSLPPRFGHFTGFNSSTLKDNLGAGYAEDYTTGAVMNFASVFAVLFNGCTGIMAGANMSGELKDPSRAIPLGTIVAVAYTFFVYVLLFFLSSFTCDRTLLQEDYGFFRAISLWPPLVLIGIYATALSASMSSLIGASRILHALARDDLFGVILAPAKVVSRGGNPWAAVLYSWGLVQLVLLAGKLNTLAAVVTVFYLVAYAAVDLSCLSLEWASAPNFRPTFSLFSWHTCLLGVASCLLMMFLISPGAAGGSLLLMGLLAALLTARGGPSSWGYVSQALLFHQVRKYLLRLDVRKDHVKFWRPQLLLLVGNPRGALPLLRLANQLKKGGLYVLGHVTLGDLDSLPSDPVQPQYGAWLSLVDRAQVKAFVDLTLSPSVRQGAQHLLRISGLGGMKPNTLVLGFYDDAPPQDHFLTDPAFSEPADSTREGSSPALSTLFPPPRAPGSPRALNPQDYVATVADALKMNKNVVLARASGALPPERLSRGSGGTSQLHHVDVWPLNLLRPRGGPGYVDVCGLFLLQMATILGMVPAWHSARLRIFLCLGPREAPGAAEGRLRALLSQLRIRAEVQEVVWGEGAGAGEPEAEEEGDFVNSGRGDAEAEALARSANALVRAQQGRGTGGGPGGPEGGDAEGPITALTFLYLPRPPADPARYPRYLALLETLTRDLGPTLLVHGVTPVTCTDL
UniProt Q12874: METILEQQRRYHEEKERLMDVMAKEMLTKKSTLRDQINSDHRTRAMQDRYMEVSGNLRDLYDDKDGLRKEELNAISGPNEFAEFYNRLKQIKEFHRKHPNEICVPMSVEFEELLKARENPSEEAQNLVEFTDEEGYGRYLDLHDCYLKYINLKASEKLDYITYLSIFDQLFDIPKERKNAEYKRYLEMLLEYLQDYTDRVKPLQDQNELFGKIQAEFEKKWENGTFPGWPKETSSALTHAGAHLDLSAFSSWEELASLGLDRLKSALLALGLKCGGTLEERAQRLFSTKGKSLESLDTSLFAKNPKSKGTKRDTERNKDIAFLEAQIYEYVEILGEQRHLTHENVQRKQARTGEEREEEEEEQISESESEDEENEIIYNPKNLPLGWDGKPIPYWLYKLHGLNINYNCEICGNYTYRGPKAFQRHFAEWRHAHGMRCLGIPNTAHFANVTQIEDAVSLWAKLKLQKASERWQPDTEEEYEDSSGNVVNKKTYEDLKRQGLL
UniProt Q9H9B4: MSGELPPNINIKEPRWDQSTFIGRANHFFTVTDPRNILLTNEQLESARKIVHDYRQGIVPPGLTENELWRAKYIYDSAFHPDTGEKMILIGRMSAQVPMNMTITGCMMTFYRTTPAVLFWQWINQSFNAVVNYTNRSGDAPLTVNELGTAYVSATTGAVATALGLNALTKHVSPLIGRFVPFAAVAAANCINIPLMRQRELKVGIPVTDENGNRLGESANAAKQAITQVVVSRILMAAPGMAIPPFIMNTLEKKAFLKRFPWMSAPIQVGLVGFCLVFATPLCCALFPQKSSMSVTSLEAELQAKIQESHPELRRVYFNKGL
UniProt Q9BWJ5: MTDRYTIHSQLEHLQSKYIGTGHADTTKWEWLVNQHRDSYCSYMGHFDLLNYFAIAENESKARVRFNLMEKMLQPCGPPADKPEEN
UniProt O75533, whole entry, looked up: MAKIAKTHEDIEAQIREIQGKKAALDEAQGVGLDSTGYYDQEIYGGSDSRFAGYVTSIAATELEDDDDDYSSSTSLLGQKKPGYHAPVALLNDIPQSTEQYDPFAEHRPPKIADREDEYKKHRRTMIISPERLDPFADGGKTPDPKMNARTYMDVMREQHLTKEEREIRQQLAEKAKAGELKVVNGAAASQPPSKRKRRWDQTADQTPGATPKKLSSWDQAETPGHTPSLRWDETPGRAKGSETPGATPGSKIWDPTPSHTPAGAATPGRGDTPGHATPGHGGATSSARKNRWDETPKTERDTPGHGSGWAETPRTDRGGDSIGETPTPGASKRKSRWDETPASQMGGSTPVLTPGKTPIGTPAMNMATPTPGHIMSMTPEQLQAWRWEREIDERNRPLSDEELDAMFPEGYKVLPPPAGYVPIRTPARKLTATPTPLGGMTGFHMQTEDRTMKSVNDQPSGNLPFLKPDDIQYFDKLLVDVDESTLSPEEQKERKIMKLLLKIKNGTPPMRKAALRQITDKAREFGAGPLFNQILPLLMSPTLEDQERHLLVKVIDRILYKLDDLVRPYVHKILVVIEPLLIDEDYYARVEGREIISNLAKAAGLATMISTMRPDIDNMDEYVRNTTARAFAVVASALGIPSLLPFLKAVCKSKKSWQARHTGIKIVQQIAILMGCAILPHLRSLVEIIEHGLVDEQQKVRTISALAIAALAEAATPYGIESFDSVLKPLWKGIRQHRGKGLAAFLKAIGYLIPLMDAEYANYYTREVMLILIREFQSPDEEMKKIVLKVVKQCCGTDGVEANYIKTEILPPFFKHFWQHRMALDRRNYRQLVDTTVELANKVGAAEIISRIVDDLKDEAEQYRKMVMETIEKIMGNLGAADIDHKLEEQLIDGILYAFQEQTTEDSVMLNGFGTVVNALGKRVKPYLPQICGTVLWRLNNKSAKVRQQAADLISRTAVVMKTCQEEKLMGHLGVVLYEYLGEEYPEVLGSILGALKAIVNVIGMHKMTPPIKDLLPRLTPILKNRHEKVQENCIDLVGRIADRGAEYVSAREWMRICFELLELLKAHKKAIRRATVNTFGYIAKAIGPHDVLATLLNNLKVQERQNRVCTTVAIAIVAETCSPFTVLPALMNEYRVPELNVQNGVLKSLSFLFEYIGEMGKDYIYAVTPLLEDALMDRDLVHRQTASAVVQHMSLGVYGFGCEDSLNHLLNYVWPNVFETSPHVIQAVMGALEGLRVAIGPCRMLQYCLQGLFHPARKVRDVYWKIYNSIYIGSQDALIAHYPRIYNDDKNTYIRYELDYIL
UniProt Q9NRX5: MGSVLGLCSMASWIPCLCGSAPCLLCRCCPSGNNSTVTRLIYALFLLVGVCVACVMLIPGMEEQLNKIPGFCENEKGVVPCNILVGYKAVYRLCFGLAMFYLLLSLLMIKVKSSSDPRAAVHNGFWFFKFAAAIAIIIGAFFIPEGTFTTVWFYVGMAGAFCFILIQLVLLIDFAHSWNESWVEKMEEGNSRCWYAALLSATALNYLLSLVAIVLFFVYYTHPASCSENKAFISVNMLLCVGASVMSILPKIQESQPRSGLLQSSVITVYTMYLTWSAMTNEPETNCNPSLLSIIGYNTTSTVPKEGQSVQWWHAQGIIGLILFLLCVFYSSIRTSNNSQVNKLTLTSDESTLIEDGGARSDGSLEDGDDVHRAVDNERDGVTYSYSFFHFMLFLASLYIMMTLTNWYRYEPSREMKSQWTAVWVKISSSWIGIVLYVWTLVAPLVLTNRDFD
UniProt Q99574: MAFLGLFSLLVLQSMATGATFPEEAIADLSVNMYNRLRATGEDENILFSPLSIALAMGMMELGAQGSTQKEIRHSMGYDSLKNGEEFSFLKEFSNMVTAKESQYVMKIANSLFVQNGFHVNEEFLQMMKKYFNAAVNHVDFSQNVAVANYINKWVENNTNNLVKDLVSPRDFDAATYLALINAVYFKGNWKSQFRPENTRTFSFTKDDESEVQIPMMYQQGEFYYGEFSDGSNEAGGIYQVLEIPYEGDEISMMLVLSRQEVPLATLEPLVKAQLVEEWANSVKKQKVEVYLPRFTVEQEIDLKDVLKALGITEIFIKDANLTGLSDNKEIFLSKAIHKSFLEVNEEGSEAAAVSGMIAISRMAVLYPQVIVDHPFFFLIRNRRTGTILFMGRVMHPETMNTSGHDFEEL
UniProt Q15393: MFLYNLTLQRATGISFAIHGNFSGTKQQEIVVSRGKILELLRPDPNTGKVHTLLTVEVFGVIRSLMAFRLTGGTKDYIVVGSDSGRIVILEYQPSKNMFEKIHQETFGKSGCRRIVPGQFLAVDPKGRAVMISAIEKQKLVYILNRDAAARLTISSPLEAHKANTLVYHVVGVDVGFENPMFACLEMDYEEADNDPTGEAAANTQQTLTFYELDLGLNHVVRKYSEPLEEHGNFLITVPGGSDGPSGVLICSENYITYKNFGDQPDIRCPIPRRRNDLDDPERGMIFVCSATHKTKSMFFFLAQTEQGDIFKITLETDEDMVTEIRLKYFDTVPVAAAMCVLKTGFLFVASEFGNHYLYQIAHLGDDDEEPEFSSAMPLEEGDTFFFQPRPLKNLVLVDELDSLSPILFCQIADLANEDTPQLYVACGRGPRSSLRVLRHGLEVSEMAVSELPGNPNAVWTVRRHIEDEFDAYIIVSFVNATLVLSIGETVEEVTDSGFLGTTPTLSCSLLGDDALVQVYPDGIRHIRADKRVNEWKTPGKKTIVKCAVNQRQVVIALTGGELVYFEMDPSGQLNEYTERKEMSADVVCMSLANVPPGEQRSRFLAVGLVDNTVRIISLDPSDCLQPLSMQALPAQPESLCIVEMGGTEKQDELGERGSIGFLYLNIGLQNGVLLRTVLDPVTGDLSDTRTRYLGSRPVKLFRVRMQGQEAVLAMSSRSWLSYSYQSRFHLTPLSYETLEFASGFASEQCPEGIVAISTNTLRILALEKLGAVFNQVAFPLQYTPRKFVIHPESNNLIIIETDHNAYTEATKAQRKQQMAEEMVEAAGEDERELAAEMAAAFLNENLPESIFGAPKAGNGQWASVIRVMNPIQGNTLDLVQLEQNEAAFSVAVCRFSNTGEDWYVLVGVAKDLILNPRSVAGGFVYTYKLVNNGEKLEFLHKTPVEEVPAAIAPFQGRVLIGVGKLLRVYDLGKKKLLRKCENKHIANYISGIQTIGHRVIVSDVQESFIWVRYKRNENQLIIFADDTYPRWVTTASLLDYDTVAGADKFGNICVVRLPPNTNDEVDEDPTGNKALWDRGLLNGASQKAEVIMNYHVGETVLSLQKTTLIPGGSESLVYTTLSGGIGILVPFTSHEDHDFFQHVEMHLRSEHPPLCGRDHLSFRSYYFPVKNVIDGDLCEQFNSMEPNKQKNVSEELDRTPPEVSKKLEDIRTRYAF

Tests used:
Experiment in all cases: log2 fold change, soluble protein after heating vs DMSO (PISA); higher = thermal stabilisation; K562 lysate, 10 uM; active = over 0.2 and 3.5 SD of the protein, either way, in both replicates (recomputed)
nilotinib = compound: Cc1cn(-c2cc(NC(=O)c3ccc(C)c(Nc4nccc(-c5cccnc5)n4)c3)cc(C(F)(F)F)c2)cn1 [nilotinib]
Method in brief: (§1)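 K562 pellets were dounce-homogenised in PBS pH 7.4 with 1 mM MgCl2, and the crude extract at 1 mg/mL protein was treated with 10 μM compound for 30 min. Aliquots were heated for 3 min across 48°C-58°C, pooled, and brought to 0.5% NP-40 at 4°C; soluble protein was the supernatant after 21,000xg for 90 min. Soluble protein was quantified by TMTpro 16plex LC-MS/MS with channel sums equalised, and reported as log2 fold change in thermal stability against DMSO controls, with values from duplicates.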

[1] = compound: Cc1nc(Nc2n[nH]c3c2CN(C(=O)N[C@H](CN(C)C)c2ccccc2)C3(C)C)c2sccc2n1
Method in brief: as §1

dasatinib = compound: Cc1nc(Nc2ncc(C(=O)Nc3c(C)cccc3Cl)s2)cc(N2CCN(CCO)CC2)n1 [dasatinib]
Method in brief: as §1

[2] = compound: Cc1ncc(-c2ccnc(Nc3ccc(S(C)(=O)=O)cc3)n2)n1C(C)C
Method in brief: as §1

[3] = compound: Cn1cc(-c2ccc3c(c2)CCN3C(=O)Cc2cccc(C(F)(F)F)c2)c2c(N)ncnc21
Method in brief: as §1

quisinostat = compound: Cn1cc(CNCC2CCN(c3ncc(C(=O)NO)cn3)CC2)c2ccccc21 [quisinostat]
Method in brief: as §1

tipifarnib = compound: Cn1cncc1[C@@](N)(c1ccc(Cl)cc1)c1ccc2c(c1)c(-c1cccc(Cl)c1)cc(=O)n2C [tipifarnib]
Method in brief: as §1

[4] = compound: NC(=O)Nc1cc(-c2cccc(F)c2)sc1C(=O)N[C@H]1CCCNC1
Method in brief: as §1

[5] = compound: NC(=O)c1cnc(N[C@@H]2CCCC[C@@H]2N)nc1Nc1cccc(-n2nccn2)c1
Method in brief: as §1

[6] = compound: NC1(c2ccc(-c3nc4ccn5c(=O)[nH]nc5c4cc3-c3ccccc3)cc2)CCC1
Method in brief: as §1

Measured: log2 fold change

SGTA (UniProt O43765)
inactive: nilotinib 0.001 | [1] -0.026 | dasatinib 0.023 | [2] 0.015 | [3] 0.002 | quisinostat 0 | tipifarnib 0.039 | [4] -0.032 | [5] -0.017 | [6] 0.02

SGO1 (UniProt Q5FBB7)
inactive: nilotinib 0.156 | [1] -0.041 | dasatinib -0.048 | [2] -0.05 | [3] 0.096 | quisinostat -0.014 | tipifarnib -0.064 | [4] 0.037 | [5] 0.024 | [6] 0.061

SERPINB5 (UniProt P36952)
inactive: nilotinib 0.029 | [1] -0.066 | dasatinib 0.162 | [2] -0.423 | [3] -0.119 | quisinostat 0.016 | tipifarnib -0.219 | [4] -0.232 | [5] 0.063 | [6] 0.219

SHPRH (UniProt Q149N8)
inactive: nilotinib 0.023 | [1] -0.012 | dasatinib -0.03 | [2] -0.077 | [3] 0.062 | quisinostat -0.086 | tipifarnib 0.103 | [4] 0.065 | [5] -0.064 | [6] 0.022

SH3BP1 (UniProt Q9Y3L3)
inactive: nilotinib -0.003 | [1] -0.024 | dasatinib -0.008 | [2] 0.033 | [3] 0.026 | quisinostat 0.024 | tipifarnib 0.035 | [4] -0.002 | [5] 0.019 | [6] 0.016

SHROOM1 (UniProt Q2M3G4)
inactive: nilotinib -0.017 | [1] -0.031 | dasatinib 0.061 | [2] 0.013 | [3] 0.03 | quisinostat -0.022 | tipifarnib 0.028 | [4] 0 | [5] -0.025 | [6] -0.049

SIX5 (UniProt Q8N196)
inactive: nilotinib 0.06 | [1] -0.05 | dasatinib 0.02 | [2] 0.074 | [3] -0.064 | quisinostat -0.141 | tipifarnib 0.02 | [4] 0.08 | [5] 0.092 | [6] -0.025

SH3BGRL3 (UniProt Q9H299)
inactive: nilotinib 0.02 | [1] -0.013 | dasatinib 0.017 | [2] 0.023 | [3] 0.002 | quisinostat -0.02 | tipifarnib 0.008 | [4] -0.016 | [5] -0.054 | [6] 0.018

SLC12A9 (UniProt Q9BXP2)
inactive: nilotinib 0.008 | [1] -0.023 | dasatinib -0.003 | [2] -0.07 | [3] -0.03 | quisinostat 0.044 | tipifarnib -0.039 | [4] -0.065 | [5] 0.005 | [6] -0.054

SH3BGRL (UniProt O75368)
inactive: nilotinib 0.035 | [1] 0.014 | dasatinib 0.002 | [2] 0.027 | [3] -0.02 | quisinostat 0 | tipifarnib 0.006 | [4] -0.026 | [5] -0.036 | [6] 0.006

SF3A3 (UniProt Q12874)
inactive: nilotinib -0.023 | [1] -0.013 | dasatinib -0.022 | [2] -0.047 | [3] -0.003 | quisinostat 0.065 | tipifarnib 0 | [4] 0.022 | [5] 0.012 | [6] 0.033

SLBP (UniProt Q14493)
inactive: nilotinib -0.037 | [1] 0.035 | dasatinib -0.007 | [2] -0.058 | [3] 0.038 | quisinostat -0.09 | tipifarnib 0.015 | [4] 0.016 | [5] -0.054 | [6] 0.1

SLC1A4 (UniProt P43007)
inactive: nilotinib -0.006 | [1] 0.009 | dasatinib 0.051 | [2] 0.006 | [3] -0.026 | quisinostat 0.025 | tipifarnib -0.014 | [4] -0.028 | [5] 0.021 | [6] 0.021

SERPINC1 (UniProt P01008)
inactive: nilotinib 0.095 | [1] 0.086 | dasatinib 0 | [2] 0.108 | [3] 0.002 | quisinostat 0.05 | tipifarnib -0.089 | [4] -0.018 | [5] 0.013 | [6] -0.044

7 successive records already listed:
SH3BGRL3 (UniProt Q9H299)
inactive: nilotinib 0.02 | [1] -0.013 | dasatinib 0.017 | [2] 0.023 | [3] 0.002 | quisinostat -0.02 | tipifarnib 0.008 | [4] -0.016 | [5] -0.054 | [6] 0.018

SLC12A9 (UniProt Q9BXP2)
inactive: nilotinib 0.008 | [1] -0.023 | dasatinib -0.003 | [2] -0.07 | [3] -0.03 | quisinostat 0.044 | tipifarnib -0.039 | [4] -0.065 | [5] 0.005 | [6] -0.054

SH3BGRL (UniProt O75368)
inactive: nilotinib 0.035 | [1] 0.014 | dasatinib 0.002 | [2] 0.027 | [3] -0.02 | quisinostat 0 | tipifarnib 0.006 | [4] -0.026 | [5] -0.036 | [6] 0.006

SF3A3 (UniProt Q12874)
inactive: nilotinib -0.023 | [1] -0.013 | dasatinib -0.022 | [2] -0.047 | [3] -0.003 | quisinostat 0.065 | tipifarnib 0 | [4] 0.022 | [5] 0.012 | [6] 0.033

SLBP (UniProt Q14493)
inactive: nilotinib -0.037 | [1] 0.035 | dasatinib -0.007 | [2] -0.058 | [3] 0.038 | quisinostat -0.09 | tipifarnib 0.015 | [4] 0.016 | [5] -0.054 | [6] 0.1

SLC1A4 (UniProt P43007)
inactive: nilotinib -0.006 | [1] 0.009 | dasatinib 0.051 | [2] 0.006 | [3] -0.026 | quisinostat 0.025 | tipifarnib -0.014 | [4] -0.028 | [5] 0.021 | [6] 0.021

SERPINC1 (UniProt P01008)
inactive: nilotinib 0.095 | [1] 0.086 | dasatinib 0 | [2] 0.108 | [3] 0.002 | quisinostat 0.05 | tipifarnib -0.089 | [4] -0.018 | [5] 0.013 | [6] -0.044

Continuation:

SFXN1 (UniProt Q9H9B4)
inactive: nilotinib -0.036 | [1] 0.004 | dasatinib -0.038 | [2] -0.005 | [3] 0.026 | quisinostat -0.028 | tipifarnib -0.074 | [4] 0.013 | [5] 0.005 | [6] 0.01

SERINC3 (UniProt Q13530)
inactive: nilotinib 0.022 | [1] 0.023 | dasatinib 0.026 | [2] -0.006 | [3] 0.009 | quisinostat -0.131 | tipifarnib -0.036 | [4] 0.04 | [5] 0.008 | [6] -0.083

SETD3 (UniProt Q86TU7)
inactive: nilotinib -0.025 | [1] 0.057 | dasatinib -0.003 | [2] -0.002 | [3] 0.053 | quisinostat -0.044 | tipifarnib -0.034 | [4] 0.045 | [5] -0.059 | [6] 0.052

SIKE1 (UniProt Q9BRV8)
inactive: nilotinib -0.044 | [1] 0.022 | dasatinib 0.074 | [2] 0.032 | [3] -0.002 | quisinostat -0.078 | tipifarnib -0.089 | [4] 0.014 | [5] 0.022 | [6] -0.053

SF3B5 (UniProt Q9BWJ5)
inactive: nilotinib 0.146 | [1] -0.083 | dasatinib -0.035 | [2] -0.006 | [3] 0.016 | quisinostat -0.051 | tipifarnib 0.036 | [4] 0.03 | [5] -0.104 | [6] 0.021

SGMS1 (UniProt Q86VZ5)
inactive: nilotinib 0.002 | [1] -0.008 | dasatinib 0.011 | [2] 0 | [3] -0.001 | quisinostat 0.099 | tipifarnib -0.006 | [4] -0.028 | [5] -0.033 | [6] 0.001

SF3B1 (UniProt O75533)
inactive: nilotinib 0.008 | [1] -0.003 | dasatinib -0.013 | [2] 0.007 | [3] -0.002 | quisinostat -0.022 | tipifarnib 0.014 | [4] 0.036 | [5] -0.006 | [6] 0.012

SFT2D2 (UniProt O95562)
inactive: nilotinib -0.126 | [1] 0.126 | dasatinib -0.108 | [2] -0.02 | [3] -0.078 | quisinostat 0.028 | tipifarnib 0.022 | [4] -0.044 | [5] -0.059 | [6] -0.098

SERINC1 (UniProt Q9NRX5)
inactive: nilotinib 0.068 | [1] -0.019 | dasatinib 0.004 | [2] -0.009 | [3] -0.069 | quisinostat -0.125 | tipifarnib -0.126 | [4] -0.013 | [5] -0.024 | [6] 0.019

SERPINI1 (UniProt Q99574)
inactive: nilotinib -0.04 | [1] -0.013 | dasatinib 0.038 | [2] -0.034 | [3] -0.013 | quisinostat 0.035 | tipifarnib 0.036 | [4] 0.003 | [5] 0.009 | [6] -0.015

SKAP2 (UniProt O75563)
inactive: nilotinib 0.001 | [1] 0.021 | dasatinib 0.015 | [2] 0.019 | [3] 0.013 | quisinostat -0.1 | tipifarnib 0.032 | [4] -0.004 | [5] 0 | [6] -0.005

SET isoform 2 (UniProt Q01105)
inactive: nilotinib 0.006 | [1] -0.029 | dasatinib 0.018 | [2] 0.011 | [3] -0.023 | quisinostat -0.04 | tipifarnib 0.02 | [4] -0.004 | [5] 0.016 | [6] -0.009

SGPP1 (UniProt Q9BX95)
inactive: nilotinib 0.037 | [1] 0.036 | dasatinib -0.009 | [2] 0.052 | [3] 0 | quisinostat 0.044 | tipifarnib 0.011 | [4] -0.249 | [5] -0.046 | [6] 0.05

SF3B3 (UniProt Q15393)
inactive: nilotinib 0.003 | [1] -0.009 | dasatinib 0 | [2] -0.005 | [3] 0.022 | quisinostat -0.031 | tipifarnib 0.001 | [4] -0.002 | [5] 0.012 | [6] -0.01

SIRT6 (UniProt Q8N6T7)
inactive: nilotinib 0.03 | [1] -0.099 | dasatinib -0.03 | [2] -0.011 | [3] 0.106 | quisinostat -0.084 | tipifarnib 0.024 | [4] -0.134 | [5] 0.032 | [6] 0.048

SF3A1 (UniProt Q15459)
inactive: nilotinib -0.009 | [1] 0.008 | dasatinib -0.007 | [2] 0.008 | [3] 0.01 | quisinostat -0.026 | tipifarnib -0.01 | [4] 0.011 | [5] -0.003 | [6] 0.007
